Laboratory results reported in paper PMC8208988.
Results are given in words; binding and its absence hold for the method and conditions named. For some assays here: In cells and extracts the contact can be indirect. Some results given as binding are weak or reduced against the parent protein; the word gives no strength. For some assays here: Sequences can lack the tags named with a protein.

Protein sequences, listed by entry. Tags and fused reporters are not part of them. Residues count along the entry.
UniProt Q96CB9, residues 26-384: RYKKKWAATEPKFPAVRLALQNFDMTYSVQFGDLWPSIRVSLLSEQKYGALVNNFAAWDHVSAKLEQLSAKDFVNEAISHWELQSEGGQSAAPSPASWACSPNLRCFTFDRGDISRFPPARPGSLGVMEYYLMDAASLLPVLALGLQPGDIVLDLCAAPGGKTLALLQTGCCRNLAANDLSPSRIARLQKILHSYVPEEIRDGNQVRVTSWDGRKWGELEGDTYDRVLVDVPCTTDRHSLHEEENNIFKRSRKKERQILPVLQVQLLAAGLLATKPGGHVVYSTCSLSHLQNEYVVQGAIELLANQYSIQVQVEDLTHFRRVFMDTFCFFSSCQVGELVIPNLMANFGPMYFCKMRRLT

Tests used:
[1] = target: T1, FLAG-tagged MTERF4 (human) (UniProt Q7Z6M4); test: co-sedimentation; continuous 10-30% sucrose gradient of mitochondrial lysates (2% digitonin, 100 mM KCl, 20 mM MgCl2, 10 mM Tris-HCl pH 7.5) from HEK 293T cells co-expressing MTERF4-FLAG and an NSUN4-HA variant; fractions immunoblotted for HA, FLAG, bL12m, bS16m
T1 sequence: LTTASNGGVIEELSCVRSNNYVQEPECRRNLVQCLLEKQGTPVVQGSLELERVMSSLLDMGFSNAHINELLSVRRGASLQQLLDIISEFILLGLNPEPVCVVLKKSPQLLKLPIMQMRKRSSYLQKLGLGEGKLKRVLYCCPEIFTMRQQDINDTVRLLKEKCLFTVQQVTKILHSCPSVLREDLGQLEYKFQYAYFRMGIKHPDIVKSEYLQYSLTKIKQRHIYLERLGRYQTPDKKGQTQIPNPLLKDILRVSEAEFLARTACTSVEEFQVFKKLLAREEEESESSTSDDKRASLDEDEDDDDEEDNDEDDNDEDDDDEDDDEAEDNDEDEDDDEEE

[2] = target: T2, MTERF4 (human (endogenous in HEK 293 EBNA)) (UniProt Q7Z6M4); test: cryo-EM structure; mt-LSU assembly intermediates affinity-purified through MTG1-3xFLAG from HEK 293 EBNA mitochondria; states A, B, C at 2.9, 3.1, 3.1 Å; 20 mM HEPES-KOH pH 7.6, 100 mM KCl, 20 mM MgCl2, 1 mM DTT
T2 sequence: T1 sequence

Substance	binding [1]	binding [2]
HA-tagged NSUN4, wild type (from UniProt Q96CB9 26-384) (enzyme)	binds	
NSUN4 (from UniProt Q96CB9 26-384) (enzyme)		binds
